Data published in US6734203B2, “Fused imidazolium derivatives” (priority 2000, dated 2004).
Some entries share one result that the patent states for a list of compounds. For at least one compound, name, drawing or mass did not settle the structure.

Tested on: Melanoma A375 cells
Test: In vivo tumor growth inhibition test (A375 xenograft)
Set-up: species or system male Balb/c nude mice
Details: dose of 0.3 or 1 mg/kg, intravenously once a day for 2 weeks, A375 xenograft in nude mice

| Compound | inhibition of tumor growth compared to the control group [%] |
| --- | --- |
| COCCn1c2c([n+](CCOC)c1C)C(=O)c1ccccc1C2=O [Example 148, 1,3-bis(2-methoxyethyl)-2-methyl-4,9-dioxo-4,9-dihydro-1H-naphtho[2,3-d]imidazol-3-ium] | ≥ 50 |
| COCCn1c2c([n+](Cc3ccncc3)c1C)C(=O)c1ccccc1C2=O.Cl.[Cl-] [Example 182, 1-(2-methoxyethyl)-2-methyl-3-(4-pyridylmethyl)-4,9-dihydro-4,9-dioxo-1H-naphtho[2,3-d]imidazol-3-ium chloride monohydrochloride] | ≥ 50 |
